{
  "sequences": {"note": "By UniProt entry, the sequences of proteins in these tests, tags left out.", "UniProt O94972": "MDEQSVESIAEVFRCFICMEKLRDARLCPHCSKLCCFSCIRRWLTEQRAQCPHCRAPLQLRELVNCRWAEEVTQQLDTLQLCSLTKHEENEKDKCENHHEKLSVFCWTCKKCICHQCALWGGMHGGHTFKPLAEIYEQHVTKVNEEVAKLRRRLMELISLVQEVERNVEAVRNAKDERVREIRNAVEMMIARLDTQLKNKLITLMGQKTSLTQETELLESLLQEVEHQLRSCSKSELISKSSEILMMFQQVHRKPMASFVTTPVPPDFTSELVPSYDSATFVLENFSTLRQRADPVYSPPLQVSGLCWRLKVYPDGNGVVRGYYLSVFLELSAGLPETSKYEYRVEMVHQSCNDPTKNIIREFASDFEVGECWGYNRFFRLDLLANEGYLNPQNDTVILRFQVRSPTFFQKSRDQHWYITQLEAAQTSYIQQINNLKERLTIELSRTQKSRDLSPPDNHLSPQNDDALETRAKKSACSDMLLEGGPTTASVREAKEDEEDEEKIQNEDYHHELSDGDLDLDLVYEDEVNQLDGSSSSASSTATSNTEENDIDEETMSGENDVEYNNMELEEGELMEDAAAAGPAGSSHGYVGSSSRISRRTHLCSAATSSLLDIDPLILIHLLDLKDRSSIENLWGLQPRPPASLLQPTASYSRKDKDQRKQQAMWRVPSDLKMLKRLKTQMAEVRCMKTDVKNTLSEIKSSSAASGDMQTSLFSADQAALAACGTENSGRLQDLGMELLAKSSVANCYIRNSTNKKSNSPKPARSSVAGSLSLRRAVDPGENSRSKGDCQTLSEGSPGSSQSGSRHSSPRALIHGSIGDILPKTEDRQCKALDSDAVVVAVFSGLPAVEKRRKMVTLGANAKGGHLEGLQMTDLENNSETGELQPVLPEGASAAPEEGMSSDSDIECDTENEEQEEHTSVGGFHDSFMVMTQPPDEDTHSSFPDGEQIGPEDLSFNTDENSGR"},
  "source": "paper PMC9355941",
  "key": {"[1]": {"molecular_target": "T1, EGFP-PBK (pEGFP-C2-PBK) (human) (UniProt Q96KB5)", "T1 sequence": "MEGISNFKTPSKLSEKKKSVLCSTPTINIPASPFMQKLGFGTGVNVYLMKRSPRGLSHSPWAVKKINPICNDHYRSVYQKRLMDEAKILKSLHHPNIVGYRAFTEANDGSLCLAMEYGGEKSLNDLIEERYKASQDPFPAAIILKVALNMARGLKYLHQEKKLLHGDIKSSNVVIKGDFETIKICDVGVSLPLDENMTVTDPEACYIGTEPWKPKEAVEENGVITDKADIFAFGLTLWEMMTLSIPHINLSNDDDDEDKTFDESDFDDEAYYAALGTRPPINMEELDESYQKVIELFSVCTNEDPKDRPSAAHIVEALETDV", "test": "co-IP; HEK293T co-transfected for 48 h with Myc- and EGFP-tagged constructs; immunoprecipitation with anti-Myc or anti-GFP antibody, protein A/G agarose, western blot"}, "GST-PBK (human)": {"molecular_target": "T2, GST-PBK (human) (UniProt Q96KB5)", "T2 sequence": "T1 sequence", "test": "pull-down; 25 µg GST fusion protein with 20 µL supernatant of UWB1.289 cells expressing PCMV-TRIM37 (flag-tag), on GST-tag Purification Resin for 2 h in GST pull-down protein binding buffer; only the target purified"}, "[2]": {"molecular_target": "T3, PDZ-binding kinase (PBK), endogenous (human (endogenous in UWB1.289 and SKOV3)) (UniProt Q96KB5)", "T3 sequence": "T1 sequence", "test": "co-IP; endogenous proteins in SKOV3 and UWB1.289 lysates; also after olaparib for 24 h with anti-TRIM37 antibody for the precipitation (binding increased by olaparib)"}, "[3]": {"molecular_target": "T4, Myc-PBK (pMyc-C2-PBK) (human) (UniProt Q96KB5)", "T4 sequence": "T1 sequence", "test": "co-IP; HEK293T co-transfected for 48 h with Myc- and EGFP-tagged constructs; immunoprecipitation with anti-Myc or anti-GFP antibody, protein A/G agarose, western blot"}},
  "note": "No constants are given. Whether binding was seen depends on the method and setting. In cells and extracts the contact can be indirect. Some results given as binding are weak or reduced against the parent protein; the word gives no strength. For some of these results: Tags and fused reporters may be left off the sequences shown.",
  "data": [
    {"substance": "Myc-TRIM37 (pMyc-C2-TRIM37) (from UniProt O94972 1-964)", "values": [
      {"measurement": "binding", "setting": "[1]", "value": "binds"}
    ]},
    {"substance": "TRIM37 (flag-tag) from PCMV-TRIM37 (from UniProt O94972 1-964)", "values": [
      {"measurement": "binding", "setting": "GST-PBK (human)", "value": "binds"}
    ]},
    {"substance": "tripartite motif containing 37 (TRIM37), endogenous (from UniProt O94972 1-964)", "values": [
      {"measurement": "binding", "setting": "[2]", "value": "binds"}
    ]},
    {"substance": "EGFP-TRIM37 (pEGFP-C2-TRIM37) (from UniProt O94972 1-964)", "values": [
      {"measurement": "binding", "setting": "[3]", "value": "binds"}
    ]}
  ]
}
